# This list was built around the results that the source calls inconclusive (neither active nor inactive); the mix of calls is not that of the screen. For part of these data: Potencies beside an inconclusive call are fits to weak or partial responses and may not hold up. Calls of active or inactive are those of the source. The call rests on the fitted dose curve; in most records, active means well fitted curve in the direction sought with a large enough effect; inconclusive means small, poorly fitted or top-dose-only effect, or another doubt; inactive means no such curve, though single readings can be large; an effect the other way counts as inactive or inconclusive.
# What was measured:
# [1] = Quantitative High-Throughput drug screen in 47 multiple myeloma cell lines against the NCATS MIPE library collection: KMS20_JCRB cell viability assay (AID 1918973); conditions: CellTiter-Glo ATP, 48 h; viability (% of DMSO): at 45.8 µM (top of the series); further: nearly all actives have a fitted effect of over 45% in size
# Outline: (§1)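 Inhibition of cell viability is measured here. Each line was plated at 500 cells per well, treated with MIPE 4.0 drugs, kept 48 hours at 37C, then assayed for ATP content by CellTiter-Glo luminescence.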
# [2] = Quantitative High-Throughput drug screen in 47 multiple myeloma cell lines against the NCATS MIPE library collection: KMS21BM_JCRB cell viability assay (AID 1918974); conditions: ATP luminescence, 48 h; viability: at 45.8 µM (top of the series) unless noted
# Outline: as §1
# [3] = Quantitative High-Throughput drug screen in 47 multiple myeloma cell lines against the NCATS MIPE library collection: MOLP8_DSMZ cell viability assay (AID 1918977); conditions: MOLP8 myeloma viability, CellTiter-Glo ATP luminescence, 48 h; viability (% of control): at 45.8 µM (top of the series); further: nearly all actives have a fitted effect of over 45% in size
# Outline: (§2)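 Viability after 48 h drug exposure was measured as ATP-dependent luminescence. Cells, 500 per well, sat at 37 °C under 5% CO2; DMSO wells set 100%, media-only wells 0%.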
# [4] = Quantitative High-Throughput drug screen in 47 multiple myeloma cell lines against the NCATS MIPE library collection: NCIH929_DSMZ cell viability assay (AID 1918978); conditions: NCI-H929 myeloma viability, CellTiter-Glo ATP, 48 h; series mostly up to 45.8 µM; further: nearly all actives have a fitted effect of over 35% in size
# Outline: as §2
# [5] = Quantitative High-Throughput drug screen in 47 multiple myeloma cell lines against the NCATS MIPE library collection: OCIMY1_PLB cell viability assay (AID 1918979); further: nearly all actives have a fitted effect of over 35% in size
# Outline: as §2
# [6] = Quantitative High-Throughput drug screen in 47 multiple myeloma cell lines against the NCATS MIPE library collection: MM1S_ATCC cell viability assay (AID 1918980); conditions: MM1S myeloma viability, CellTiter-Glo ATP luminescence, 48 h; viability (% of control): at 45.8 µM (top of the series); further: nearly all actives have a fitted effect of over 45% in size
# Outline: as §2
# [7] = Quantitative High-Throughput drug screen in 47 multiple myeloma cell lines against the NCATS MIPE library collection: KMS26_JCRB cell viability assay (AID 1918975); conditions: KMS26 myeloma cells viability, CellTiter-Glo ATP, 48 h; viability (% of DMSO): at 45.8 µM (top of the series); further: nearly all actives have a fitted effect of over 45% in size
# Outline: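 Viability readout: CellTiter-Glo luminescence following 5 min room-temperature incubation with reagent. Prior exposure: 48 h, 37C, humidified 5% CO2, 500 cells per well.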
# [8] = Quantitative High-Throughput drug screen in 47 multiple myeloma cell lines against the NCATS MIPE library collection: MMM1_PLB cell viability assay (AID 1918976); further: nearly all actives have a fitted effect of over 35% in size
# Outline: as §2
# Potency means the concentration at half of the fitted maximal effect.
Compound,Potency [1],Potency [2],Potency [3],Potency [4],Potency [5],Potency [6],Potency [7],Potency [8]
CC(=Cc1ccccc1)C=C1SC(=S)N(CC(=O)O)C1=O,inactive,"inconclusive: 23.5 µM [rising, partial curve]","inconclusive: 0.0074 µM [cytotoxic, single point]",inactive,inactive,inactive,–,–
CC1(C)CCC2=C(O1)c1ccccc1C(=O)C2=O,–,"inconclusive: 33.2 µM [rising, partial curve]",–,"inconclusive: 33.2 µM [cytotoxic, single point]",–,–,active: 18.7 µM,active: 2.64 µM
Cc1nc(N)sc1-c1ccnc(Nc2ccc(N3CCOCC3)cc2)n1,–,"inconclusive: 1.32 µM [cytotoxic, full curve, poor fit]",active: 7.43 µM,–,–,–,"inconclusive: 18.7 µM [cytotoxic, partial curve, poor fit]",–
OCCC#Cc1nc(-c2ccc(F)cc2)c(-c2ccncc2)n1CCCc1ccccc1,active: 16.6 µM,–,inactive,active: 8.33 µM,"inconclusive: 59 nM [rising, full curve, poor fit]","inconclusive: 26.4 µM [cytotoxic, single point]","inconclusive: 37.2 µM [cytotoxic, single point]","inconclusive: 33.2 µM [cytotoxic, single point]"
COc1cc2nc(N3CCCN(C)CC3)nc(NC3CCN(Cc4ccccc4)CC3)c2cc1OC,active: 0.833 µM,active: 4.69 µM,active: 4.69 µM,–,active: 5900 nM,–,–,–

# Source: PubChem BioAssay (NCATS)
